Results are given in words; binding and its absence hold for the method and conditions named. Some results given as binding are weak or reduced against the parent protein; the word gives no strength.

Protein sequences, listed by entry. Tags and fused reporters are not part of them. Lines headed by an entry give the natural chain unless they say otherwise; changes in a name come on top.
UniProt P16471: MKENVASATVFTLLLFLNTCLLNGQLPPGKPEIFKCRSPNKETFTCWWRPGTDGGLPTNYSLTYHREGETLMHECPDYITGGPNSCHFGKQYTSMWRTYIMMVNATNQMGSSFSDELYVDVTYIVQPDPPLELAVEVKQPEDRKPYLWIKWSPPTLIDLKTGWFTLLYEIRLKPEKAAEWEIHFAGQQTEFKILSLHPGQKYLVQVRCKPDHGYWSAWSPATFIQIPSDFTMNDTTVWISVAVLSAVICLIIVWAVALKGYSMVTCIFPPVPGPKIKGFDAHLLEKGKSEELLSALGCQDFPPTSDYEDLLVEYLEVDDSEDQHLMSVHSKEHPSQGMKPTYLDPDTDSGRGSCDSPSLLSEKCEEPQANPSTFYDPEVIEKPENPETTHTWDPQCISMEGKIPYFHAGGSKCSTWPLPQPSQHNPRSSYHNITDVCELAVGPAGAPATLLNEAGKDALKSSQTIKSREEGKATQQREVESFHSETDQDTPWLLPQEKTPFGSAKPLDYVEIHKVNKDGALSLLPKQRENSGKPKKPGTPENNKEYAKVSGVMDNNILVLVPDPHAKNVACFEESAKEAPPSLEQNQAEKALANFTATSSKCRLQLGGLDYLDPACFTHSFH

Experiment [1] has as its target extracellular domain of human PRLR (monomeric, soluble) (human) (UniProt P16471). The experiment in a line: ELISA, Fab in E. coli supernatant on immobilized human PRLR ECD; reference non-maturated 005-C04 Fab. (An ELISA detects its analyte on a solid surface through an enzyme-linked reagent.)
For experiment [2] the target is unchanged. The experiment in a line: ELISA: plate coated with human PRLR extracellular domain, Fab-containing E. coli supernatant, anti-flag-HRP, Amplex Red.

B1: 005-C04-L2-1-16-5 (Fab, V domains shown)
VH: EVQLLESGGGLVQPGGSLRLSCAASGFTFSSYWWHWVRQAPGKGLEWVSDMARASSYTNYADSVKGRFTISRDNSKNTLYLQMNSLRAEDTAVYYCARGLDARRMDYWGQGTLVTVTS
VL: QSVLTQPPSASGTPGQRVTISCTGSSSNIGAGYVVHWYQQLPGTATKLLIYRNNVRQSGVPDRFSGSKSGTSASLAISGLRSEDEADYYCAAWDDSLNGWLFGGGTKLTVLG
Regarding B1, the binding result in experiment [1] and in experiment [2] was “binds” in each case.

The values are drawn from patent US20130129739A1.
